Experimental data published in patent US20020045603A1, “Method of inhibiting membrane-type matrix metalloproteinase” (The Research Foundation of State University of New York, priority 1998, published 2002).
Some results were stated once for a whole list of compounds, not compound by compound. For at least one compound, name, drawing or mass did not settle the structure.

Assays:
[1] = system: HT-1080 fibrosarcoma cells; assay: Transwell migration of HT-1080 fibrosarcoma cells; type: cell-based, human; details: 18 hr, 10% serum
Description: HT-1080 cells were allowed to migrate in the presence of medium containing 10% serum for 18 hr in Transwell chambers (Costar, Cambridge, Mass.). […] The data are expressed as means of triplicate measurements.

[2] = system: HT-1080 fibrosarcoma cells; assay: Matrigel invasion of HT-1080 fibrosarcoma cells; type: cell-based, human; details: for concentration at which suppression of invasion starts: 24 hr, 10% serum; for IC50: read-out: IC50 in vitro invasion of HT-1080 cells
Procedure: HT-1080 cells were allowed to invade through Matrigel (Collaborative Research, Bedford, Mass.) for 24 hr in medium containing 10% serum. CMT-3 or CMT-8 were added to the medium to assess their ability to inhibit invasivity of the cells. CMT-3 was tested at final concentrations of 1 μM or 10 μM; CMT-8 was tested twice at a final concentration of 50 μM. The invading cells were counted, and the relative numbers of cells were expressed as means of triplicate measurements.

NC(=O)C1=C(O)C[C@@H]2C[C@@H]3Cc4cccc(O)c4C(=O)C3=C(O)[C@]2(O)C1=O [CMT-3, 6-demethyl-6-deoxy-4-de(dimethylamino)tetracycline]
concentration at which suppression of migration starts [1]: 1 to 10 µM | concentration at which suppression of invasion starts [2]: 1 to 10 µM | IC50 [2]: 1000 to 3000 nM

C[C@H]1c2cccc(O)c2C(O)=C2C(=O)[C@]3(O)C(O)=C(C(N)=O)C(=O)C[C@@H]3[C@@H](O)[C@@H]21 [CMT-8, 6-deoxy-5α-hydroxy-4-de(dimethylamino)tetracycline]
concentration at which suppression of migration starts [1]: 1 to 10 µM | concentration at which suppression of invasion starts [2]: 1 to 10 µM | IC50 [2]: 1000 to 3000 nM
